From publication PMC12511632
These are yes or no findings as the source states them, for the method shown. Binding seen in cells or lysates may run through a third protein. Sequences can lack the tags named with a protein.

Target: T1, C-terminally FLAG-tagged G2E3 (G2/M-phase-specific E3 ubiquitin ligase) (UniProt Q7L622)
T1 sequence: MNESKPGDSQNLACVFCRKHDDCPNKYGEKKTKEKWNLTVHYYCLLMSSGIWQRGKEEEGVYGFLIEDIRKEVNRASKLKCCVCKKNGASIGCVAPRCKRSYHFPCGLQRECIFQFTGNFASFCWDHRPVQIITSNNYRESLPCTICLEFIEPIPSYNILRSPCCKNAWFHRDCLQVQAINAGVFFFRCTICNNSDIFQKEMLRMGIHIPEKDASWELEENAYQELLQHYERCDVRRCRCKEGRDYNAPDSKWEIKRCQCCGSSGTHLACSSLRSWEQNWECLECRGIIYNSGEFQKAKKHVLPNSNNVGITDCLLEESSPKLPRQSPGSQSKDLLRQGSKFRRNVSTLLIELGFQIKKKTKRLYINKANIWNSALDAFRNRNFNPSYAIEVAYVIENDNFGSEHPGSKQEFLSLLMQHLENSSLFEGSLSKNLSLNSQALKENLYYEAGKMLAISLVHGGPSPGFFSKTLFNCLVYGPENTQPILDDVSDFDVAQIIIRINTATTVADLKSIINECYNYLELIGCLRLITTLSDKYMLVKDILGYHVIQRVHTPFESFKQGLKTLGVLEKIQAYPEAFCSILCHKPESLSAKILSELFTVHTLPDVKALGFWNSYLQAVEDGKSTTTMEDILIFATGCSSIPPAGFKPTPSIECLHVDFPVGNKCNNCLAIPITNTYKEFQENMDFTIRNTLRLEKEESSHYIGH
Experiment: co-IP; HEK293TN cells (text: HEK293T) transfected with G2E3-FLAG or empty FLAG plasmid, 48 h; lysed in RIPA buffer; Pierce Co-IP kit; endogenous partners detected by immunoblot

binding: no binding
Substance: ubiquitin (human (endogenous in HEK293TN))
